Results deposited as PubChem BioAssay AID1259308 (NCATS, 2017).
Here is an unselected part of about 59,000 reagents. Over the whole deposit, about 1,510 (2.6%) are marked active. 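Calls use total luciferase alone and ignore viability, so some active siRNAs may act by altering cell number.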 The numbers tell different reagents against one gene apart. Further read-outs or replicates are left out here.

Assay: 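Knock-downs that increase output of a recombinant reporter protein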 (primary screen)
Cell system: human HEK293 embryonic kidney cells stably expressing firefly luciferase (HEK-CMV-Luc2-Hygro)
Reagent: single siRNA against human genes, 0.8 pmol siRNA per well
Duration: 72 h
Detection: 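Luciferase light (ONE-Glo) measured on one replicate plate set and viability (CellTiter-Glo) on the other, scaled to a negative control siRNA, with robust z-scores and luciferase per cell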
Direction: total luciferase, z-score and total luciferase, % of control: higher = more reporter protein produced
Active means: 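Active when the median/MAD z-score for overall luciferase is greater than 3; a gene was taken forward for validation with new siRNAs if at least two of its three siRNAs passed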
Calls: active = raised luciferase; inactive = no rise

Which result is listed for TMEM95 (transmembrane protein 95) #1?
total luciferase, z-score: 0.21; total luciferase, % of control: 86.1; Outcome: inactive

With TMEM95 (transmembrane protein 95) #2, how do the results read?
total luciferase, z-score: -0.313; total luciferase, % of control: 75.7; Outcome: inactive

With TMEM95 (transmembrane protein 95) #3, what does the deposit list?
total luciferase, z-score: -0.0903; total luciferase, % of control: 80.1; Outcome: inactive

What is on record for KPNA1 (karyopherin subunit alpha 1) #1?
total luciferase, z-score: 1.67; total luciferase, % of control: 115; Outcome: inactive

With KPNA1 (karyopherin subunit alpha 1) #2, how do the results read?
total luciferase, z-score: -0.0846; total luciferase, % of control: 80.2; Outcome: inactive

With KPNA1 (karyopherin subunit alpha 1) #3, what was measured?
total luciferase, z-score: 0.908; total luciferase, % of control: 99.9; Outcome: inactive

For MOGS (mannosyl-oligosaccharide glucosidase) #1, what was measured?
total luciferase, z-score: -0.648; total luciferase, % of control: 69; Outcome: inactive

For MOGS (mannosyl-oligosaccharide glucosidase) #2, what does the deposit list?
total luciferase, z-score: 0.911; total luciferase, % of control: 100; Outcome: inactive

Which result is listed for MOGS (mannosyl-oligosaccharide glucosidase) #3?
total luciferase, z-score: 0.47; total luciferase, % of control: 91.2; Outcome: inactive

With OR4P4 (olfactory receptor family 4 subfamily P member 4) #1, what was measured?
total luciferase, z-score: 0.339; total luciferase, % of control: 88.6; Outcome: inactive

With OR4P4 (olfactory receptor family 4 subfamily P member 4) #2, what was measured?
total luciferase, z-score: 1.43; total luciferase, % of control: 110; Outcome: inactive

With OR4P4 (olfactory receptor family 4 subfamily P member 4) #3, what was measured?
total luciferase, z-score: -0.654; total luciferase, % of control: 68.9; Outcome: inactive

For OSBPL11 (oxysterol binding protein like 11) #1, what was measured?
total luciferase, z-score: -0.329; total luciferase, % of control: 75.3; Outcome: inactive

What did the screen give for OSBPL11 (oxysterol binding protein like 11) #2?
total luciferase, z-score: 0.401; total luciferase, % of control: 89.9; Outcome: inactive

With OSBPL11 (oxysterol binding protein like 11) #3, what does the deposit list?
total luciferase, z-score: 0.21; total luciferase, % of control: 86.1; Outcome: inactive

Which result is listed for PSMG1 (proteasome assembly chaperone 1) #1?
total luciferase, z-score: 0.144; total luciferase, % of control: 84.7; Outcome: inactive

How did the screen score PSMG1 (proteasome assembly chaperone 1) #2?
total luciferase, z-score: 0.972; total luciferase, % of control: 101; Outcome: inactive

How did the screen score PSMG1 (proteasome assembly chaperone 1) #3?
total luciferase, z-score: -0.179; total luciferase, % of control: 78.3; Outcome: inactive

What did the screen give for SPCS3 (signal peptidase complex subunit 3) #1?
total luciferase, z-score: -0.526; total luciferase, % of control: 71.4; Outcome: inactive

For SPCS3 (signal peptidase complex subunit 3) #2, what was measured?
total luciferase, z-score: -0.529; total luciferase, % of control: 71.4; Outcome: inactive

With SPCS3 (signal peptidase complex subunit 3) #3, what was measured?
total luciferase, z-score: -1.17; total luciferase, % of control: 58.6; Outcome: inactive

Taken from above:
Under “Outcome”, PSMG1 (proteasome assembly chaperone 1) #2 is entered as inactive
OSBPL11 (oxysterol binding protein like 11) #3, Outcome → inactive
